These are yes or no findings as the source states them, for the method shown. In cells and extracts the contact can be indirect. A yes stands for co-enrichment or nearness to the bait. Other partners may have been found.
Molecular target: RNA helicase DDX5 (human (endogenous in NHEKs)) (UniProt P17844)
Assay: affinity purification with mass spectrometry; NHEK lysate incubated with DDX5 antibody at 4 °C, protein A/G agarose beads; rabbit IgG control; Coomassie-stained bands cut and digested

By UniProt entry, the sequences of proteins in these tests, tags left out.
UniProt P17844: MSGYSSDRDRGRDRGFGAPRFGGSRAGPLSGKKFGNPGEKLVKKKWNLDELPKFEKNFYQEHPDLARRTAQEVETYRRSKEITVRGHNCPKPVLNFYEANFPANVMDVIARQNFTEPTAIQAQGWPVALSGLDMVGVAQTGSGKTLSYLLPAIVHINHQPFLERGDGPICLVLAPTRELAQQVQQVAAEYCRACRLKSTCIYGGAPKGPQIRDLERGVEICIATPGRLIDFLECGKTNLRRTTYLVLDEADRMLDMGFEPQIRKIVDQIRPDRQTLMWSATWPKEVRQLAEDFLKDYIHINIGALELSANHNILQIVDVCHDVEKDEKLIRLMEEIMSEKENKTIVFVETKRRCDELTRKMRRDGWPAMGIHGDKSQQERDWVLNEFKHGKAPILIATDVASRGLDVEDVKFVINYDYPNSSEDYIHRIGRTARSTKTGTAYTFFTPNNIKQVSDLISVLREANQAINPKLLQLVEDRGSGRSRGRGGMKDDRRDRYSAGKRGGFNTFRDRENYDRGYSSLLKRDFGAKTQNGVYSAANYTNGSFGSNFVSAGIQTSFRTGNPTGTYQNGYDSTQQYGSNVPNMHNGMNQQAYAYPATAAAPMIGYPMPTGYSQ
UniProt Q07955: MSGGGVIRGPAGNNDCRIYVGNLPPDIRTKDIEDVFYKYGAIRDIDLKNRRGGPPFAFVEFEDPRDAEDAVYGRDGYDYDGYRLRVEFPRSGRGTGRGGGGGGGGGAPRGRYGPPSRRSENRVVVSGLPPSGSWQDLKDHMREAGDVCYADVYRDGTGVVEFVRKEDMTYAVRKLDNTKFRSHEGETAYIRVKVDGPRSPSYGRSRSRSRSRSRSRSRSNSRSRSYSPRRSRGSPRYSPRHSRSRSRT
UniProt Q92841: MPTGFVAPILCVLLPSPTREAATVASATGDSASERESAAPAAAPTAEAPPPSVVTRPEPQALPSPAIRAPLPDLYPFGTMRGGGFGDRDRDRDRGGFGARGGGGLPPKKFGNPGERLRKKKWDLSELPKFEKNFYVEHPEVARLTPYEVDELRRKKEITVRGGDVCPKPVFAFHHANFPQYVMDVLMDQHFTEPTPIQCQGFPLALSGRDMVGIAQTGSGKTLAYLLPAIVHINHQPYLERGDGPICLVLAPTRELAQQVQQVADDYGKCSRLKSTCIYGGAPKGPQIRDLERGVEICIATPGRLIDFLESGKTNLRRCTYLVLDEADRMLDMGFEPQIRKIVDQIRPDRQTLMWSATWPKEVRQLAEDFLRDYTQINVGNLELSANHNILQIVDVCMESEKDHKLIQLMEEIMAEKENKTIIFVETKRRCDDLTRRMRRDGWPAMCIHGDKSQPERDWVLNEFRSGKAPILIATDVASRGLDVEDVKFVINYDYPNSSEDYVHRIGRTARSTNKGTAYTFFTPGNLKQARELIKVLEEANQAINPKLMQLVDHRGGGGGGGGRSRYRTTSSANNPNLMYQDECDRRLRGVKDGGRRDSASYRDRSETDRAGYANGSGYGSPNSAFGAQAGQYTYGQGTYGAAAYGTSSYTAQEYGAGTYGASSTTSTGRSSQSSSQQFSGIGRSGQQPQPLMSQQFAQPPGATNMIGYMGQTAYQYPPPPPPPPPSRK

Row | binding | Substance
1 | binds | splicing factor SF2 (also known as SRSF1) (from UniProt Q07955 1-248)
2 | binds | DDX17 (from UniProt Q92841 1-729)

Reference: publication PMC9663298
